Patent US6472178
No constants are given. Whether binding was seen depends on the method and setting. Some binding calls cover weakened binding; strength is not graded here. Values belong to the binder of their own block, whether it stands above or below them.

Legend:
[1] = target: T1, human CNTF receptor α-component on MG87/CNTFR fibroblasts (human) (UniProt P26992); experiment: competition with 125I-rat CNTF on MG87/CNTFR cells
T1 sequence (looked up): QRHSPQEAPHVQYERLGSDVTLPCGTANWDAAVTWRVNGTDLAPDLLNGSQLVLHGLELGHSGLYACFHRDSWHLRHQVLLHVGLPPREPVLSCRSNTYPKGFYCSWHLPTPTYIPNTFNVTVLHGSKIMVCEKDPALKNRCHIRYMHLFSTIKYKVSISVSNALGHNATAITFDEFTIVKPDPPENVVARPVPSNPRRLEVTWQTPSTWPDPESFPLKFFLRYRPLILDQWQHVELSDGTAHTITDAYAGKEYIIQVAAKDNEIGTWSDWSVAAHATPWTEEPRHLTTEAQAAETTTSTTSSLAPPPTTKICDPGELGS

[2] = target: T2, rat CNTF receptor on rat superior cervical ganglia (SCG) neurons (rat) (UniProt Q08406); experiment: competition with 125I-rat CNTF on rat SCG neurons
T2 sequence (looked up): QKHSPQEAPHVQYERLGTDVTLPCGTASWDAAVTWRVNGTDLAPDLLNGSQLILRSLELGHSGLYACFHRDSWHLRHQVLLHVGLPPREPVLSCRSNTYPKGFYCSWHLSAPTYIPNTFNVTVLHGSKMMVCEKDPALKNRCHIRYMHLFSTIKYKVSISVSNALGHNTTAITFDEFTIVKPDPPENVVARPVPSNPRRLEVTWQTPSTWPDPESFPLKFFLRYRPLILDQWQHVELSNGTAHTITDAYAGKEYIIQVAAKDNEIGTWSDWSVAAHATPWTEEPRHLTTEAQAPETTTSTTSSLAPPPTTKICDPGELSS

binding [1]: binds
binding [2]: binds
B1: recombinant rat CNTF (ciliary neurotrophic factor) (ligand)
chain: MAFAEQTPLTLHRRDLCSRSIWLARKIRSDLTALMESYVKHQGLNKNINLDSVDGVPVASTDRWSEMTEAELRQENLQAYRTFQGMLTKLLEDQRVHFTPTEGDFHQAIHTLMLQVSAFAYQLEELMVLLEQKIPENEADGMPATVGDGGLFEKKLWGLKVLQELSQWTVRSIHDLRVISSHQMGISALESHYGAKDKQM
notes: also called unlabelled rat CNTF

binding [2]: binds
B2: recombinant human CNTF (ciliary neurotrophic factor) (ligand)
chain: MAFTEHSPLTPHRRDLCSRSIWLARKIRSDLTALTESYVKHQGLNKNINLDSADGMPVASTDQWSELTEAERLQENLQAYRTFHVLLARLLEDQQVHFTPTEGDFHQAIHTLLLQVAAFAYQIEELMILLEYKIPRNEADGMPINVGDGGLFEKKLWGLKVLQELSQWTVRSIHDLRFISSHQTGIPARGSHYIANNKKM
